# Some of the results follow.
# Tests used:
# Assay in all cases: glycan array binding signal (z-score within array); higher = stronger binding
# Details in all cases: glycan notation: IUPAC condensed, linker removed
# [1] = system: GlcNAc(b1-2)Man(a1-3)[GlcNAc(b1-2)Man(a1-6)]Man(b1-4)GlcNAc(b1-4)GlcNAc
# How it was run: (§1)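 The binding signal is a Z-score computed within each array and averaged over linkers. Arrays of the same protein sequence at different concentrations or buffers were also averaged together. Data originate from 3228 arrays in the Consortium for Functional Glycomics database, kept only where the protein sequence was available.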
# [2] = system: GlcNAc(b1-2)Man(a1-3)[GlcNAc(b1-2)Man(a1-6)]Man(b1-4)GlcNAc(b1-4)[Fuc(a1-6)]GlcNAc
# How it was run: as §1
# [3] = system: GlcNAc(b1-2)Man(a1-3)[GlcNAc(b1-4)][GlcNAc(b1-2)Man(a1-6)]Man(b1-4)GlcNAc(b1-4)GlcNAc
# How it was run: as §1
# [4] = system: GlcNAc(b1-2)[GlcNAc(b1-4)]Man(a1-3)[GlcNAc(b1-2)Man(a1-6)]Man(b1-4)GlcNAc(b1-4)GlcNAc
# How it was run: as §1
# [5] = system: GlcNAc(b1-2)[GlcNAc(b1-4)]Man(a1-3)[GlcNAc(b1-4)][GlcNAc(b1-2)Man(a1-6)]Man(b1-4)GlcNAc(b1-4)GlcNAc
# How it was run: as §1
# [6] = system: GlcNAc(b1-2)[GlcNAc(b1-4)]Man(a1-3)[GlcNAc(b1-4)][GlcNAc(b1-2)[GlcNAc(b1-6)]Man(a1-6)]Man(b1-4)GlcNAc(b1-4)GlcNAc
# How it was run: as §1
# [7] = system: GlcNAc(b1-2)[GlcNAc(b1-4)]Man(a1-3)[GlcNAc(b1-4)][GlcNAc(b1-2)[GlcNAc(b1-6)]Man(a1-6)]Man(b1-4)GlcNAc(b1-4)[Fuc(a1-6)]GlcNAc
# How it was run: as §1
# [8] = system: GlcNAc(b1-2)[GlcNAc(b1-6)]Man(a1-6)[GlcNAc(b1-2)Man(a1-3)]Man(b1-4)GlcNAc(b1-4)GlcNAc
# How it was run: as §1
# [9] = system: GlcNAc(b1-2)[GlcNAc(b1-6)]Man(a1-6)[GlcNAc(b1-2)Man(a1-3)]Man(b1-4)GlcNAc(b1-4)[Fuc(a1-6)]GlcNAc
# How it was run: as §1
# [10] = system: GlcNAc(b1-2)[GlcNAc(b1-6)]Man(a1-6)[GlcNAc(b1-2)Man(a1-3)][GlcNAc(b1-4)]Man(b1-4)GlcNAc(b1-4)GlcNAc
# How it was run: as §1
# [11] = system: GlcNAc(b1-3)Gal(b1-3)GalNAc
# How it was run: as §1
# [12] = system: GlcNAc(b1-3)Gal(b1-4)GlcNAc(b1-3)Gal(b1-4)GlcNAc
# How it was run: as §1
# [13] = system: GlcNAc(b1-3)Gal(b1-4)GlcNAc
# How it was run: as §1
# GlcNAc(b1-3)Gal(b1-4)Glc = system: GlcNAc(b1-3)Gal(b1-4)Glc
# How it was run: as §1
# GlcNAc(b1-3)GalNAc = system: GlcNAc(b1-3)GalNAc
# How it was run: as §1
# GlcNAc(b1-3)Gal = system: GlcNAc(b1-3)Gal
# How it was run: as §1
# GlcNAc(b1-3)Man = system: GlcNAc(b1-3)Man
# How it was run: as §1
# [14] = system: GlcNAc(b1-3)[GlcNAc(b1-4)][GlcNAc(b1-6)]GlcNAc
# How it was run: as §1
# [15] = system: GlcNAc(b1-3)[GlcNAc(b1-6)]Gal(b1-4)GlcNAc
# How it was run: as §1
# [16] = system: GlcNAc(b1-3)[GlcNAc(b1-6)]GalNAc
# How it was run: as §1
# [17] = system: GlcNAc(b1-4)Gal(b1-4)GlcNAc
# How it was run: as §1
# [18] = system: GlcNAc(b1-4)GlcNAc(b1-4)GlcNAc(b1-4)GlcNAc(b1-4)GlcNAc(b1-4)GlcNAc
# How it was run: as §1
# [19] = system: GlcNAc(b1-4)GlcNAc(b1-4)GlcNAc(b1-4)GlcNAc(b1-4)GlcNAc
# How it was run: as §1
# [20] = system: GlcNAc(b1-4)GlcNAc(b1-4)GlcNAc
# How it was run: as §1
# GlcNAc(b1-4)GlcNAc = system: GlcNAc(b1-4)GlcNAc
# How it was run: as §1
# [21] = system: GlcNAc(b1-4)[GlcNAc(b1-6)]GalNAc
# How it was run: as §1
# [22] = system: GlcNAc(b1-6)Gal(b1-4)GlcNAc
# How it was run: as §1
# GlcNAc(b1-6)GalNAc = system: GlcNAc(b1-6)GalNAc
# How it was run: as §1
# GlcNAc3Prop(b1-4)GlcNAc = system: GlcNAc3Prop(b1-4)GlcNAc
# How it was run: as §1
# [23] = system: GlcNAc6S(b1-3)Gal(b1-4)GlcNAc
# How it was run: as §1
# Kdn(a2-3)Gal(b1-3)GalNAc = system: Kdn(a2-3)Gal(b1-3)GalNAc
# How it was run: as §1
# Kdn(a2-3)Gal(b1-3)GlcNAc = system: Kdn(a2-3)Gal(b1-3)GlcNAc
# How it was run: as §1
# Kdn(a2-3)Gal(b1-4)GlcNAc = system: Kdn(a2-3)Gal(b1-4)GlcNAc
# How it was run: as §1
# Kdn(a2-3)Gal(b1-4)Glc = system: Kdn(a2-3)Gal(b1-4)Glc
# How it was run: as §1
# [24] = system: Kdn(a2-3)Gal(b1-4)[Fuc(a1-3)]GlcNAc
# How it was run: as §1
# Kdn(a2-6)Gal(b1-4)GlcNAc = system: Kdn(a2-6)Gal(b1-4)GlcNAc
# How it was run: as §1
# [25] = system: Man(a1-2)Man(a1-2)Man(a1-3)Man
# How it was run: as §1
# [26] = system: Man(a1-2)Man(a1-2)Man(a1-6)[Man(a1-3)]Man
# How it was run: as §1
# Man(a1-2)Man(a1-3)Man = system: Man(a1-2)Man(a1-3)Man
# How it was run: as §1
# [27] = system: Man(a1-2)Man(a1-3)[Man(a1-2)Man(a1-6)]Man(a1-6)[Man(a1-2)Man(a1-2)Man(a1-3)]Man(b1-4)GlcNAc(b1-4)GlcNAc
# How it was run: as §1
# [28] = system: Man(a1-2)Man(a1-3)[Man(a1-2)Man(a1-6)]Man(a1-6)[Man(a1-2)Man(a1-2)Man(a1-3)]Man
# How it was run: as §1
# [29] = system: Man(a1-2)Man(a1-3)[Man(a1-2)Man(a1-6)]Man
# How it was run: as §1
# [30] = system: Man(a1-2)Man(a1-3)[Man(a1-6)]Man(a1-6)[Man(a1-2)Man(a1-3)]Man(b1-4)GlcNAc(b1-4)GlcNAc
# How it was run: as §1
# [31] = system: Man(a1-2)Man(a1-6)[Man(a1-3)]Man(a1-6)[Man(a1-2)Man(a1-2)Man(a1-3)]Man(b1-4)GlcNAc(b1-4)GlcNAc
# How it was run: as §1
# [32] = system: Man(a1-2)Man(a1-6)[Man(a1-3)]Man(a1-6)[Man(a1-2)Man(a1-2)Man(a1-3)]Man
# How it was run: as §1
# [33] = system: Man(a1-3)[Man(a1-6)]Man(a1-6)[Man(a1-2)Man(a1-3)]Man(b1-4)GlcNAc(b1-4)GlcNAc
# How it was run: as §1
# [34] = system: Man(a1-3)[Man(a1-6)]Man(a1-6)[Man(a1-3)]Man(b1-4)GlcNAc(b1-4)GlcNAc
# How it was run: as §1
# [35] = system: Man(a1-3)[Man(a1-6)]Man(a1-6)[Man(a1-3)]Man
# How it was run: as §1
# [36] = system: Man(a1-3)[Man(a1-6)]Man(b1-4)GlcNAc(b1-4)GlcNAc
# How it was run: as §1
# [37] = system: Man(a1-3)[Man(a1-6)]Man(b1-4)GlcNAc(b1-4)[Fuc(a1-6)]GlcNAc
# How it was run: as §1
# Man(a1-3)[Man(a1-6)]Man = system: Man(a1-3)[Man(a1-6)]Man
# How it was run: as §1
# Man(a1-6)Man = system: Man(a1-6)Man
# How it was run: as §1
substance,measurement,setting,value
"Wza (Escherichia coli), P0A930",glycan array binding signal (z-score),[1],0.515
same,glycan array binding signal (z-score),[2],0.698
same,glycan array binding signal (z-score),[3],-1.18
same,glycan array binding signal (z-score),[4],1.34
same,glycan array binding signal (z-score),[5],-1.18
same,glycan array binding signal (z-score),[6],-0.183
same,glycan array binding signal (z-score),[7],0.238
same,glycan array binding signal (z-score),[8],0.119
same,glycan array binding signal (z-score),[9],-0.503
same,glycan array binding signal (z-score),[10],0.046
same,glycan array binding signal (z-score),[11],1.95
same,glycan array binding signal (z-score),[12],-0.704
same,glycan array binding signal (z-score),[13],0.697
same,glycan array binding signal (z-score),GlcNAc(b1-3)Gal(b1-4)Glc,-0.11
same,glycan array binding signal (z-score),GlcNAc(b1-3)GalNAc,-0.25
same,glycan array binding signal (z-score),GlcNAc(b1-3)Gal,0.004
same,glycan array binding signal (z-score),GlcNAc(b1-3)Man,0
same,glycan array binding signal (z-score),[14],-0.187
same,glycan array binding signal (z-score),[15],3.12
same,glycan array binding signal (z-score),[16],-0.007
same,glycan array binding signal (z-score),[17],0.402
same,glycan array binding signal (z-score),[18],-0.076
same,glycan array binding signal (z-score),[19],0.184
same,glycan array binding signal (z-score),[20],-0.546
same,glycan array binding signal (z-score),GlcNAc(b1-4)GlcNAc,-0.042
same,glycan array binding signal (z-score),[21],2.4
same,glycan array binding signal (z-score),[22],-0.003
same,glycan array binding signal (z-score),GlcNAc(b1-6)GalNAc,0.32
same,glycan array binding signal (z-score),GlcNAc3Prop(b1-4)GlcNAc,0.521
same,glycan array binding signal (z-score),[23],-2
same,glycan array binding signal (z-score),Kdn(a2-3)Gal(b1-3)GalNAc,-0.819
same,glycan array binding signal (z-score),Kdn(a2-3)Gal(b1-3)GlcNAc,0.313
same,glycan array binding signal (z-score),Kdn(a2-3)Gal(b1-4)GlcNAc,0.8
same,glycan array binding signal (z-score),Kdn(a2-3)Gal(b1-4)Glc,-0.674
same,glycan array binding signal (z-score),[24],-0.783
same,glycan array binding signal (z-score),Kdn(a2-6)Gal(b1-4)GlcNAc,1.66
same,glycan array binding signal (z-score),[25],2.8
same,glycan array binding signal (z-score),[26],-0.801
same,glycan array binding signal (z-score),Man(a1-2)Man(a1-3)Man,0.737
same,glycan array binding signal (z-score),[27],-0.23
same,glycan array binding signal (z-score),[28],-0.236
same,glycan array binding signal (z-score),[29],-0.253
same,glycan array binding signal (z-score),[30],-0.709
same,glycan array binding signal (z-score),[31],-0.481
same,glycan array binding signal (z-score),[32],0.83
same,glycan array binding signal (z-score),[33],0.776
same,glycan array binding signal (z-score),[34],-0.362
same,glycan array binding signal (z-score),[35],-0.413
same,glycan array binding signal (z-score),[36],-1.05
same,glycan array binding signal (z-score),[37],-1.88
same,glycan array binding signal (z-score),Man(a1-3)[Man(a1-6)]Man,1.81
same,glycan array binding signal (z-score),Man(a1-6)Man,-1.27

# A portion taken from the entries so far, as a working copy:
substance,measurement,setting,value
"Wza (Escherichia coli), P0A930",glycan array binding signal (z-score),[29],-0.253
same,glycan array binding signal (z-score),[30],-0.709

# Reference: the supplement of paper PMC8728848
